Some peptides are written in HELM: one residue between dots, names in brackets for other building blocks, links after the first $. No end group written: not given here.
Experiment: general procedure: Fmoc solid-phase peptide synthesis; 2-CTA resin, degree of substitution 0.93 mmol/g, prepared into CTC resin (Examples 4-7)
Details: whole synthesis, detection wavelength 220 nm

Substance: AVSEHQLIHDKGKSIQELRRRFFLHHLLAEIHTAYGFGG
- final HPLC purity: 94.8%

Substance: Ala-Val-Ser-Glu-His-Gln-Leu-Leu-His-Asp-Lys-Gly-Lys-Ser-Ile-Gln-Asp-Leu-Arg-Arg-Arg-Glu-Leu-Leu-Glu-Lys-Leu-Leu-Ala-Lys-Leu-His-Thr- Ala-Tyr-Arg-Gly-Phe-Gly-Gly (AVSEHQLLHDKGKSIQDLRRRELLEKLLAKLHTAYRGFGG; The sequence is synthesized)
- final HPLC purity: 96.1%

Substance: PEPTIDE1{A.V.S.E.H.Q.L.L.H.D.K.G.K.S.I.Q.D.L.R.R.R.E.L.L.E.K.L.L.[Aib].K.L.H.T.A.Y.G.F.G.G}$$$$V2.0
- final HPLC purity: 95.8%

Substance: PEPTIDE1{A.V.S.E.H.Q.L.L.H.D.K.G.K.S.I.Q.D.L.R.R.R.E.L.L.E.K.L.L.[NMeAla].K.L.H.T.A.Y.G.F.G.G}$$$$V2.0
- final HPLC purity: 95.8%

Source: patent US20210107953A1 (SHAANXI MICOT TECHNOLOGY LIMITED COMPANY, priority 2019, published 2021)
